PubChem BioAssay AID743121 | NCATS – 2013

- Purpose: 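Partners whose loss is lethal together with topoisomerase I blockade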 (primary screen)
- System: MDA-MB-231 cells, a human breast cancer line
- Reagents: single siRNA against human genes, 20 nM siRNA (0.8 pmol per well)
- Time to read-out: 120 h (drug added 48 h after transfection, read 72 h later)
- Challenge: camptothecin 20 nM (about EC30) for 72 h; vehicle 0.1% DMSO in parallel plates
- Detection: 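CellTiter-Glo ATP signal, scaled to control siRNA as percent viability; sensitisation given as log2 of untreated divided by camptothecin-treated viability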
- Direction: log2 vehicle/camptothecin viability: higher = stronger sensitisation to camptothecin; viability with camptothecin: higher = more viable cells
- Units: viability with camptothecin in % of control
- Hit rule: 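Each gene scored by redundant siRNA activity (RSA) over its individual siRNA ratios; a gene is called active at p < 0.001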
The deposit covers about 26,000 reagents; this is a random part of them. 167 of them (0.63%) count as active. 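Calls are per gene from RSA p-values that are not deposited; an individual active-marked siRNA can sensitise only weakly.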 The numbers tell different reagents against one gene apart. Not all columns of the deposit are shown.

RAB5A (RAB5A, member RAS oncogene family) #1 scored log2 vehicle/camptothecin viability 0.244; viability with camptothecin 81.4; inactive. With knock-down of RAB5A (RAB5A, member RAS oncogene family) #2, the record shows log2 vehicle/camptothecin viability -0.336; viability with camptothecin 65; inactive. Knock-down of RAB5A (RAB5A, member RAS oncogene family) #3 came out at: log2 vehicle/camptothecin viability -0.0551; viability with camptothecin 41.6; inactive. Depletion of KCNJ11 (potassium inwardly rectifying channel subfamily J member 11) #1 gave: log2 vehicle/camptothecin viability 0.0611; viability with camptothecin 81.5; inactive. Against KCNJ11 (potassium inwardly rectifying channel subfamily J member 11) #2, the values are log2 vehicle/camptothecin viability -0.406; viability with camptothecin 85.5; inactive. After knock-down of KCNJ11 (potassium inwardly rectifying channel subfamily J member 11) #3 the results were log2 vehicle/camptothecin viability -0.47; viability with camptothecin 52.1; inactive.

KCNJ11 (potassium inwardly rectifying channel subfamily J member 11) #4 showed log2 vehicle/camptothecin viability 0.301; viability with camptothecin 74.2; inactive. After knock-down of FAM3B (FAM3 metabolism regulating signaling molecule B) #1, the record shows log2 vehicle/camptothecin viability -0.567; viability with camptothecin 104; inactive. After knock-down of FAM3B (FAM3 metabolism regulating signaling molecule B) #2 the results were log2 vehicle/camptothecin viability -0.734; viability with camptothecin 63.5; inactive. Silencing of FAM3B (FAM3 metabolism regulating signaling molecule B) #3 came out at: log2 vehicle/camptothecin viability -0.0972; viability with camptothecin 114; inactive. With knock-down of FAM3B (FAM3 metabolism regulating signaling molecule B) #4 the results were log2 vehicle/camptothecin viability 0.0682; viability with camptothecin 78.2; inactive. For ATP2A2 #1, the values are log2 vehicle/camptothecin viability -0.366; viability with camptothecin 60.6; inactive.

For ATP2A2 #2, the values are log2 vehicle/camptothecin viability -0.197; viability with camptothecin 94.4; inactive. ATP2A2 #3 gave log2 vehicle/camptothecin viability 0.295; viability with camptothecin 35.2; inactive. Against ATP2A2 #4 the deposit lists log2 vehicle/camptothecin viability -0.357; viability with camptothecin 118; inactive. Against RAB20 (RAB20, member RAS oncogene family) #1 the deposit lists log2 vehicle/camptothecin viability 0.293; viability with camptothecin 44.9; inactive. With knock-down of RAB20 (RAB20, member RAS oncogene family) #2 the results were log2 vehicle/camptothecin viability -0.223; viability with camptothecin 86.9; inactive. Knock-down of RAB20 (RAB20, member RAS oncogene family) #3 gave: log2 vehicle/camptothecin viability 0.554; viability with camptothecin 68.1; inactive.

Against NTHL1 (nth like DNA glycosylase 1) #1, the values are log2 vehicle/camptothecin viability -0.371; viability with camptothecin 71; inactive. Silencing of NTHL1 (nth like DNA glycosylase 1) #2 came out at: log2 vehicle/camptothecin viability -0.443; viability with camptothecin 47.6; inactive. After knock-down of NTHL1 (nth like DNA glycosylase 1) #3, the record shows log2 vehicle/camptothecin viability -0.222; viability with camptothecin 101; inactive. NTHL1 (nth like DNA glycosylase 1) #4 gave log2 vehicle/camptothecin viability -0.891; viability with camptothecin 68.3; inactive.

Laid out differently: results already given
{"gene knocked down": "ATP2A2", "reagent": 2, "log2 vehicle/camptothecin viability": -0.197, "viability with camptothecin": 94.4, "Outcome": "inactive"}
{"gene knocked down": "ATP2A2", "reagent": 3, "log2 vehicle/camptothecin viability": 0.295, "viability with camptothecin": 35.2, "Outcome": "inactive"}
{"gene knocked down": "ATP2A2", "reagent": 4, "log2 vehicle/camptothecin viability": -0.357, "viability with camptothecin": 118, "Outcome": "inactive"}
{"gene knocked down": "RAB20 (RAB20, member RAS oncogene family)", "reagent": 1, "log2 vehicle/camptothecin viability": 0.293, "viability with camptothecin": 44.9, "Outcome": "inactive"}
{"gene knocked down": "RAB20 (RAB20, member RAS oncogene family)", "reagent": 2, "log2 vehicle/camptothecin viability": -0.223, "viability with camptothecin": 86.9, "Outcome": "inactive"}

More reagents follow:
After knock-down of UMPS (uridine monophosphate synthetase) #1, the record shows log2 vehicle/camptothecin viability -0.0867; viability with camptothecin 78.5; inactive. Silencing of UMPS (uridine monophosphate synthetase) #2 resulted in: log2 vehicle/camptothecin viability -0.0967; viability with camptothecin 73.8; inactive. UMPS (uridine monophosphate synthetase) #3 gave log2 vehicle/camptothecin viability -0.104; viability with camptothecin 67.5; inactive. Silencing of GLA (galactosidase alpha) #1 resulted in: log2 vehicle/camptothecin viability -0.53; viability with camptothecin 48.7; inactive. Silencing of GLA (galactosidase alpha) #2 gave: log2 vehicle/camptothecin viability -0.114; viability with camptothecin 42.8; inactive. Against GLA (galactosidase alpha) #3, the entry reads log2 vehicle/camptothecin viability -0.284; viability with camptothecin 86.9; inactive.

With knock-down of GLA (galactosidase alpha) #4 the results were log2 vehicle/camptothecin viability -0.0455; viability with camptothecin 92.6; inactive. Against GSR (glutathione-disulfide reductase) #1, the values are log2 vehicle/camptothecin viability 0.073; viability with camptothecin 86.2; inactive. With knock-down of GSR (glutathione-disulfide reductase) #2, the record shows log2 vehicle/camptothecin viability 0.0975; viability with camptothecin 50.8; inactive. After knock-down of GSR (glutathione-disulfide reductase) #3 the results were log2 vehicle/camptothecin viability -0.0873; viability with camptothecin 104; inactive. For STK35 (serine/threonine kinase 35) #1 the deposit lists log2 vehicle/camptothecin viability -0.57; viability with camptothecin 79; inactive. For STK35 (serine/threonine kinase 35) #2, the values are log2 vehicle/camptothecin viability -0.199; viability with camptothecin 28.4; inactive.

Silencing of STK35 (serine/threonine kinase 35) #3 gave: log2 vehicle/camptothecin viability 0.038; viability with camptothecin 58.1; inactive. STK35 (serine/threonine kinase 35) #4 showed log2 vehicle/camptothecin viability -0.11; viability with camptothecin 89.6; inactive.
